According to patent US7645772B2, “Treatment of metabolic disorders” (Wellstat Therapeutics Corporation, priority 2002, dated 2010):
For at least one compound, name, drawing or mass did not settle the structure.

System: db/db mice
Assay: Antidiabetic effects in db/db mice, second experiment (8 weeks of treatment)
Format: in vivo
Conditions: male db/db mice, daily oral treatment, after 8 weeks; compound of the invention 150 mg/kg, rosiglitazone 20 mg/kg; compared to vehicle-treated controls

SMILES: CN(CCOc1ccc(CC2SC(=O)NC2=O)cc1)c1ccccn1 (centres unmarked) [rosiglitazone]
- blood glucose: significantly lower
- triglycerides: significantly lower
